## Results of single-concentration screens

The chains behind the UniProt entries cited, without tags or fusion partners. Residues count along the entry.
UniProt P9WPC5, whole entry: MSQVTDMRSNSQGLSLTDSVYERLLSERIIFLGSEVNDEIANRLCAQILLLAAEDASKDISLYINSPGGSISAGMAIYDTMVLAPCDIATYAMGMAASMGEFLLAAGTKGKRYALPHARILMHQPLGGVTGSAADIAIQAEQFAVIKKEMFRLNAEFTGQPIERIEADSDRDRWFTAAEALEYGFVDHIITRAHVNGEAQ
UniProt P9WPC3, whole entry partner: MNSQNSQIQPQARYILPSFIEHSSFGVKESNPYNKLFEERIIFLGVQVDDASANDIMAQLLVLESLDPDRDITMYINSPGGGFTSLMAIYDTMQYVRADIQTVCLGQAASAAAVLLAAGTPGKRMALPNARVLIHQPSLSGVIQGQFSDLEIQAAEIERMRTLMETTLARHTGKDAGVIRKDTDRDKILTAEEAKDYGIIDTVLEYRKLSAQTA
UniProt Q4DA54, 1-478: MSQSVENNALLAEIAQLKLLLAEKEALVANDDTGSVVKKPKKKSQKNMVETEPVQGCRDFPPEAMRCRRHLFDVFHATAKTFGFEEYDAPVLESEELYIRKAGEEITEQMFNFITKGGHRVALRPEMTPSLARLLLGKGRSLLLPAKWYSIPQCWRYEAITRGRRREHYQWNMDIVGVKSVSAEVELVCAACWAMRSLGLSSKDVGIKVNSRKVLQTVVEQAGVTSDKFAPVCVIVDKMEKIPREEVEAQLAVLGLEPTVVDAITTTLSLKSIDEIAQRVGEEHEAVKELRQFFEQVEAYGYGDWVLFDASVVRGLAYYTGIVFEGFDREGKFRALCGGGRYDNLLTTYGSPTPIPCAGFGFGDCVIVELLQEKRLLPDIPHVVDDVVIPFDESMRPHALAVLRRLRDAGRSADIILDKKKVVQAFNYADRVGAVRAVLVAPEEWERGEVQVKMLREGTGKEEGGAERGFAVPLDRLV
UniProt Q8IDJ8, 1-583: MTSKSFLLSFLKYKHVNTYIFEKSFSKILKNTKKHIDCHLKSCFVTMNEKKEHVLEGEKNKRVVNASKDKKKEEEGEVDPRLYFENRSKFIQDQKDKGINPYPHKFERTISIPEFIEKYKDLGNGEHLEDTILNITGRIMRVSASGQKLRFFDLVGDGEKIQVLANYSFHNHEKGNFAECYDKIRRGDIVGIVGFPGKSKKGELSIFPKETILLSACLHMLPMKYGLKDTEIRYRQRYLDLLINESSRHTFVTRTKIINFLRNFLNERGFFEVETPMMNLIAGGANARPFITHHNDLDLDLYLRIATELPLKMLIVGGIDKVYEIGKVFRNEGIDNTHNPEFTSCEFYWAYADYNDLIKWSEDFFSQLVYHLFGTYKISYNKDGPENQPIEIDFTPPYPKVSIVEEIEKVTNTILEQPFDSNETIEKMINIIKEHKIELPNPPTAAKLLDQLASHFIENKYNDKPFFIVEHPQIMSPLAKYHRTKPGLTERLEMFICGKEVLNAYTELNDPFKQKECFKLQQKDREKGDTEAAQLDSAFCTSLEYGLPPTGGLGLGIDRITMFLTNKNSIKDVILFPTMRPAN
UniProt P9WNZ1, whole entry: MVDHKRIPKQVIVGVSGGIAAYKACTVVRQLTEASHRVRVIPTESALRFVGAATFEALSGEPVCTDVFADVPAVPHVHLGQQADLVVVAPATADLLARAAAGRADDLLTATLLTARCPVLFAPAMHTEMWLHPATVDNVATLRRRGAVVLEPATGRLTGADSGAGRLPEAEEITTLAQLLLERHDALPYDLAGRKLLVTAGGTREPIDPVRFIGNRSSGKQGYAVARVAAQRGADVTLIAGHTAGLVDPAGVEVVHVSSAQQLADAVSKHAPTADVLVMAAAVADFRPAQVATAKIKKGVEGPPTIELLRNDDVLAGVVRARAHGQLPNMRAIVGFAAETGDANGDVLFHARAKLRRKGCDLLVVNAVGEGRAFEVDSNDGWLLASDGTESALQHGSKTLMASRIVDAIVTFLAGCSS
UniProt I6X8D2, whole entry: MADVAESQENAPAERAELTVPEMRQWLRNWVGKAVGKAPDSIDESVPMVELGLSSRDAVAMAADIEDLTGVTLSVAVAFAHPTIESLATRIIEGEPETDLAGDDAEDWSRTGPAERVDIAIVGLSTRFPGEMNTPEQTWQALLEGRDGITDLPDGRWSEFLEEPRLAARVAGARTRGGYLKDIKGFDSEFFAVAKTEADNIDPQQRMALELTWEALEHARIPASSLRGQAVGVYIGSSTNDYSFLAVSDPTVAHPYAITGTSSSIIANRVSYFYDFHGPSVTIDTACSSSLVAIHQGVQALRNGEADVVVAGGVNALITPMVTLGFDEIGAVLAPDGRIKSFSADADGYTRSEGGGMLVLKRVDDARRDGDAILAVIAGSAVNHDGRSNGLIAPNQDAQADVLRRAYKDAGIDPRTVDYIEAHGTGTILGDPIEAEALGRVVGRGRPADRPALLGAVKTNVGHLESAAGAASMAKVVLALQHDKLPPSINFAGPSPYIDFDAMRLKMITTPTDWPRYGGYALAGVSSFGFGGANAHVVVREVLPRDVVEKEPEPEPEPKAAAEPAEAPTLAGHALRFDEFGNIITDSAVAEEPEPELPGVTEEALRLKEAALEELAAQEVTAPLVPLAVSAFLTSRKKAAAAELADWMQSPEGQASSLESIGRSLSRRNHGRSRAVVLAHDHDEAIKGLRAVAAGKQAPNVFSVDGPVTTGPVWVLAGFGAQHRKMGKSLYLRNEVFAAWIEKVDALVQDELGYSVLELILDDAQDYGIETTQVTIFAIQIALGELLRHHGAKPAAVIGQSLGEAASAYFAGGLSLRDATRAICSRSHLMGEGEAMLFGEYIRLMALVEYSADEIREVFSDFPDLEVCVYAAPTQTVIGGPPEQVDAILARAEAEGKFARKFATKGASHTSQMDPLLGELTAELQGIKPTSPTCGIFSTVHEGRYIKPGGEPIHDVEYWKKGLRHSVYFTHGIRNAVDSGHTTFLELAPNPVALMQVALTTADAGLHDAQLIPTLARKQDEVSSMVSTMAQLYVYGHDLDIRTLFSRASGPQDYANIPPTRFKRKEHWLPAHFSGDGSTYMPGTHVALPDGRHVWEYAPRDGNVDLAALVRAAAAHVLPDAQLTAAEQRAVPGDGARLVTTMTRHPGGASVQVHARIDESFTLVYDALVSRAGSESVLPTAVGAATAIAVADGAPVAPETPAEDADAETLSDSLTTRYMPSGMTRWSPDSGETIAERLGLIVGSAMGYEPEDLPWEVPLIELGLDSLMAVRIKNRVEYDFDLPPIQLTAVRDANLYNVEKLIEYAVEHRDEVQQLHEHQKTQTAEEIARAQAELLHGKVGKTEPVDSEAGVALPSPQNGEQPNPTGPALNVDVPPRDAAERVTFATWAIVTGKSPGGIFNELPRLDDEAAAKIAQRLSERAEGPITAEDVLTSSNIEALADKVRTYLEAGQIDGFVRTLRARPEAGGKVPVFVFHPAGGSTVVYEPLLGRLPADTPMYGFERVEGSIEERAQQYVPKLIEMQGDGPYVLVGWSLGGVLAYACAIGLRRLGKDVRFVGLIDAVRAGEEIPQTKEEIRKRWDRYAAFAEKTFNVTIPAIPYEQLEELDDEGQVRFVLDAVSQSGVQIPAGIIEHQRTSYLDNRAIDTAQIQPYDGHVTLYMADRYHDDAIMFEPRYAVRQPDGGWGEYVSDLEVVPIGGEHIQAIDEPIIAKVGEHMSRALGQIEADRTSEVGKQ

Data taken from ChEMBL document CHEMBL3988442, “University of Dundee, Small-Polar-MMV Screening Library” (2021).

ClpP1P2: 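ClpP1P2, Mycobacterium tuberculosis (UniProt P9WPC5 and UniProt P9WPC3). Protease assay of ClpP1P2, read by the AMC dye that it sets free. Concentration: 50 µM. Direction is inferred from only a few compounds that gave an IC50; most scored high, so higher reads as stronger inhibition. Most other retested compounds had strongly negative values. Of about 69,000 compounds tested this way, about 10 (0.015%) reached 50% or more in at least one test.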
TcHisRS: 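Enzyme assay of histidyl-tRNA synthetase; the read-out is not stated. Target: Histidine-tRNA ligase, Trypanosoma cruzi CL Brener (UniProt Q4DA54). Tested at 30 µM. The record gives no direction; compounds that gave an IC50 in retests scored well above the rest, so higher reads as stronger inhibition. About 69,000 compounds were tested under these conditions; 0.045% (about 31) showed 50% or more at least once.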
PfKRS1: 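Enzyme assay of the cytosolic lysyl-tRNA synthetase in 384-well plates, read by luminescence. Target: Lysine-tRNA ligase, Plasmodium falciparum 3D7 (UniProt Q8IDJ8). Compounds at 30 µM. Direction is inferred from only a few compounds that gave an IC50; most scored high, so higher reads as stronger inhibition. Of about 69,000 compounds tested this way, about 49 (0.071%) reached 50% or more in at least one test.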
CoaBC: 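Enzyme assay of CoaBC with a phosphate dye (Biomol Green) read at 650 nm. Target: Coenzyme A biosynthesis protein CoaBC, Mycobacterium tuberculosis (UniProt P9WNZ1). Compounds at 30 µM. Higher reads as stronger inhibition, judged from the few compounds that gave an IC50. Most strong results did not repeat in a second test. Of about 67,000 compounds tested this way, about 40 (0.06%) reached 50% or more in at least one test.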
Leishmania in macrophages: 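Cell assay of Leishmania donovani living inside macrophages; the read-out is not stated. Compounds at 30 µM. Direction is inferred from retests: higher values go with stronger inhibition. About 69,000 compounds were tested under these conditions; 1.5% (about 1,000) showed 50% or more at least once.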
Pks13 thioesterase: 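Polyketide synthase Pks13, Mycobacterium tuberculosis (UniProt I6X8D2). Enzyme assay of the thioesterase domain of polyketide synthase 13; the read-out is not stated. Tested at 30 µM. Higher reads as stronger inhibition (inferred from which compounds were picked for retests). Of about 67,000 compounds tested this way, about 300 (0.46%) reached 50% or more in at least one test.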

Results are given as percent effect. How 0% and 100% were set is not recorded. Most values in the screen are low, and negative values occur. The compounds are a random part of those screened. Two or more numbers in one place are separate tests of the same structure; such repeats can differ widely. A dash means the value is not listed here; it may have been measured.

Compound	ClpP1P2	TcHisRS	PfKRS1	CoaBC	Leishmania in macrophages	Pks13 thioesterase
CC(C)c1noc(CN(C)C(c2ccc(F)cc2)c2cccnc2)n1 (centres undefined)	-12.55	3.665	-1.593	-2.355	-39.36	-30.8
Cc1cnc(C(=O)N2Cc3cc(Cl)ccc3OC3(CCOCC3)C2)cn1	-13.13	5.97	0.4071	1.703	12.93 and 20.38	-
O=C(N[C@@H]1CN(c2ncccn2)C[C@@H]2CCCO[C@@H]21)c1ccnnc1	0.5987	5.882	5.651	3.257	-	-15.4
CCc1noc(C(C)N2CCN(CCN3CCCC3=O)CC2)n1 (centres undefined)	-5.311	4.651	3.044	25 and 10.82	15.5	-7.193
CC(=O)N1CCCn2nc(CNS(=O)(=O)Cc3ccccc3)cc2C1	-10.12	-3.636	6.084	0.2554	-46.52	-33.75
CNC(=O)[C@@]12CCCN(c3ncccn3)[C@@H]1CN(C(=O)NC(C)C)C2	5.491	-1.087	0.737	2.408	-	-
Cc1cc(C(F)(F)F)nn1CCCNC(=O)C1CCCO1 (centres undefined)	-1.653	1.156	0.1458	-1.84	1.162	-30.84
CCOCCCNC(=O)Nc1ccc(F)c(C(N)=O)c1	-15.4	7.692	0.2948	-13.14	15.49	-26.18
O=C(c1ccoc1)N1CCN(Cc2ccccc2F)CC1	10.37	10	3.934	5.785	-9.61	7.4
CN(C)C(=O)N1CCN(C(=O)c2ccn3ccnc3c2)CC1	-11.34	7.182	2.619	2.427	28.51	-31.46
Cc1cc(NCCSc2nccn2C)n2nc(C)c(C)c2n1	-2.646	9.091	2.863	0.3367	-36.82	-4.94
Nc1c(Cl)cnn1C1CCN(Cc2ccccc2)C1 (centres undefined)	-5.546	5.844	1.773	2.781	4.785	-11.64
Cc1cc2c(=O)n3c(nc2s1)CCN(C(=O)c1cn(C)nc1C)CC3	1.453	2.247	-1.392	-1.115	-10.57	-44.87
O=C(O)C(F)(F)F.O=C1N(Cc2cccnc2)CCC12CCCN(c1ncc(F)cn1)C2 (centres undefined)	-	-	-	-	6.606	-
CC1CN(c2ccc(CNC(=O)NCCn3ccnc3)cn2)CCO1 (centres undefined)	8.811	0	4.182	-13.61	19.98	-62.13
CCSc1cc(C(=O)NCCNC(=O)N(C)C)ccn1	-6.318	5.521	0.3802	-1.408	17.58	-4.747
NC(=O)CN1CCC(NC2CSCCc3ccccc32)CC1 (centres undefined)	16.71	3.896	3.705	-0.7317	10.69	2.134
Cn1ccc(C(=O)NC2CCC23CCN(C(=O)N2CCCC2)CC3)c1 (centres undefined)	9.09	3.867	2.154	2.828	20.13	-38.08
Cc1cc2c(cc1Cl)C=CC1(CCN(CC(=O)NC3CCCC3)CC1)O2	-15.13	4.286	0.8578	2.055	26.72	2.17
O=C(Nc1cc(F)ccc1OCC1CCCO1)N1CCSCC1 (centres undefined)	-13.03	1.143	0.5809	-1.434	21.19	-11.73
CCN1Cc2c(C(=O)NC(C)C(C)C)ncn2-c2ccccc2S1(=O)=O (centres undefined)	-7.576	-2.956	-5.48	-2.284	24.51	-
CC(C)CN(Cc1ccsc1)C(=O)CCCn1cncn1	-12.55	1.685	5.522	11.87	40.23	-7.832
Cc1cccc(CN2CCc3ncnc(NC4CCC4)c3CC2)n1	-2.899	10.05	3.453	2.423	-	1.186
Cl.O=C(Nc1cccc(CNCc2csc(Br)c2)c1)C1CC1	-	-	-	-	43.87	-
Cc1cc(O)n(-c2ccc3nnc(C)n3n2)n1	4.624	4.969	6.09	3.924	7.201	5.53
Cc1nc2c(C)cccc2cc1C(=O)N1CCC2(CCN(C)CC2)C1	-0.6063	8.537	6.131	1.646	16.18	-2.645
O=C(O)C(F)(F)F.[H][C@@]12C[C@H](C(=O)N3CCCO3)CN(CCc3ccccc3)[C@]1([H])CCO2	-	-	-	-	0.2217	-
CC(=O)N1CCCC(C(=O)N2CCN(Cc3cc(C)on3)CC2)C1 (centres undefined)	-1.009	1.685	5.115	1.408	-0.3237	-1.311
CN(CC(=O)NCC(CCO)c1ccccc1)C(=O)OC(C)(C)C (centres undefined)	12.63	1.02	-4.969	-0.3636	-45.92	5.738
CC1(C)[C@H](Cc2cc(CO)on2)C[C@@H]1NCc1ccc(CO)o1	5.669	5.435	0	5.519	-2.233	17.13
CCN1C(=O)C2(CCCCC2)NC1c1cc(C#N)n(C)c1C (centres undefined)	1.893	0.8403	3.261	4.839	17	-5.572
[H][C@@]12C[C@H](C(=O)N3CCCC3)[C@@]([H])(CN(C(=O)Nc3ccccc3)C1)O2	-	-	-	-	34.37	-
CCC(C(=O)Nc1ccc(-c2nc(C)n[nH]2)cc1)N1CCCC1=O (centres undefined)	-3.296	4.094	2.837	1.515	14.53	-
CC(=O)N(Cc1noc(C)n1)C1CCN(Cc2cccc(C#N)c2)C1 (centres undefined)	9.318	8.262	-1.675	-12.87	5.094	-105.9
CNC(=O)c1cn(C(C)(C)C)c2ncccc12	-5.677	11.36	1.81	1.699	35.58	13.88
COCC(=O)N1CCC(c2nc3ccc(-c4ccccc4)cn3n2)CC1	-11.22	7.438	0.1029	-1.935	7.991	0.741
CC(C)[C@@H]1CN(CCOc2ccc(Cl)cc2)C[C@H]1NS(C)(=O)=O	-7.363	2.809	3.512	7.847	4.078	-36.71
COc1ccc(OC)c(C(C(=O)O)N2CCSCC2)c1 (centres undefined)	-11.77	7.143	6.972	4.403	3.6	-20.06
Cc1ccc(C2(CN3CCN(c4ncccn4)CC3)CCNCC2)nc1	6.011	7.143	8.081	-28.57	-2.357	-14.45
COc1ccc(OCCNCc2c(C)nn(C)c2N(C)C)cc1.Cl	-	-	-	-	-2.523	-
CC(C)Oc1ncccc1CNC(=O)N1CCCC1c1ccsc1 (centres undefined)	-24.02	0.5764	0.1547	4.773	-58.46	-8.383
CC(=O)CC(C)(C)NC(=O)CCN(C)Cc1ccc(Cl)s1	-2.864	5.172	5.585	12.38	9.002	-13.13
O=C(CC1C=CCC1)N1CCc2ncnc(NCc3ccon3)c2CC1 (centres undefined)	-6.012	2.679	0.9394	0.3774	1.935	-20.08
[H][C@@]12OCCC[C@]1([H])N(C(=O)c1ccsc1)C[C@@H]2N1CCOCC1	-	-	-	-	4.636	-
CC(CN1CCOCC1)NC(=O)N(C)Cc1ccc(Cl)s1 (centres undefined)	-10.65	4.348	13.01	3.644	29.72	-21.79
CN1C(=O)CC(c2ccccc2)C12CCN(CC1CC1)CC2.O=C(O)C(F)(F)F (centres undefined)	-	-	-	-	3.522	-
O=C(O)C(F)(F)F.[H][C@@]12CN(Cc3ccsc3)CCO[C@]1([H])CN(C(=O)C1CCOCC1)C2	-	-	-	-	25.77	-
Cc1ccc(C(=O)N2CC[C@@H]3[C@H]2CCC(=O)N3CCN(C)C)cn1	15.84	0	2.606	-	-	-2.109
O=C(O)C(F)(F)F.[H][C@@]12CCN(c3ccc(C)nn3)C[C@]1(C(=O)NC(C)C)CCO2	-	-	-	-	6.509	-
O=C(c1ccccn1)N1C[C@@H](OCc2cccnc2)[C@H]2OCCC[C@@H]21	4.58	5.785	7.662	5.042	-	-15.62